Results deposited as PubChem BioAssay AID686938 (Drosophila RNAi Screening Center, 2013).

- Aim: 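Looking for CRAC channel components and the factors controlling them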 (primary screen)
- Cell system: Drosophila S2R+ cells
- Reagents: long dsRNA against Drosophila genes, about 0.25 µg dsRNA per well, roughly 10,000 cells
- Duration: 5 days of knock-down before the calcium assay
- Challenge: thapsigargin (SERCA pump blocker) to empty calcium stores; entry signal taken 4 min after adding it
- Detection: 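Duplicate raw fluo-4 intensities per well from a plate reader, at rest and four minutes after thapsigargin emptied calcium stores; entry-to-rest ratio filled for only some wells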
- Direction: calcium entry signal: higher = stronger calcium signal after store depletion; entry to resting ratio: higher = more calcium entry relative to resting level; resting calcium signal: higher = higher resting calcium signal
- Active means: 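Hit if the duplicate-averaged plate z-score for entry over resting signal is under −3; wells with weak total dye signal (Fmax z < −2) or more than 5 off-targets removed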
- Meaning of the calls: active = strongly reduced calcium entry; inactive = no strong reduction
The deposit covers about 23,000 reagents; below is a random part of those that have a named target and a result. In the full data, 75 (0.33%) are marked active. 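Raw plate signals without normalisation; calls rest on plate z-scores that were not deposited; ratio present for only 364 wells.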 The numbers tell different reagents against one gene apart. A plus sign joins genes that one reagent is predicted to hit. Not stated in the record: the dose of the treatment.

| calcium entry signal, replicate 1 (fluorescence units) | calcium entry signal, replicate 2 (fluorescence units) | entry to resting ratio | resting calcium signal, replicate 1 (fluorescence units) | resting calcium signal, replicate 2 (fluorescence units) | outcome | gene | reagent |
| --- | --- | --- | --- | --- | --- | --- | --- |
| 3.59e7 | 4.12e7 | – | 1.70e7 | 1.83e7 | inactive | CG17633 (GeneID 34297) | 1 |
| 3.85e7 | 3.06e7 | – | 2.34e7 | 1.51e7 | inactive | CG30008 (GeneID 246388) | 1 |
| 3.80e7 | 3.33e7 | – | 1.91e7 | 1.52e7 | inactive | CG32639 (GeneID 318134) | 1 |
| 3.31e7 | 3.63e7 | – | 1.62e7 | 1.77e7 | inactive | Slimp (GeneID 318604) | 1 |
| 4.54e7 | 4.50e7 | – | 1.95e7 | 1.91e7 | inactive | obst-H (GeneID 39681) | 1 |
| 5.00e7 | 4.61e7 | – | 2.00e7 | 1.87e7 | inactive | obst-H (GeneID 39681) | 2 |
| 5.06e7 | 4.20e7 | – | 2.17e7 | 1.97e7 | inactive | CG14499 (GeneID 37086) | 1 |
| 5.47e7 | 4.95e7 | – | 2.58e7 | 2.01e7 | inactive | Vml (GeneID 5740271) | 1 |
| 3.61e7 | 4.57e7 | 2 | 1.81e7 | 2.06e7 | inactive | Vml (GeneID 5740271) | 2 |
| 5.12e7 | 4.02e7 | – | 2.24e7 | 1.69e7 | inactive | CG7653 (GeneID 34935) | 1 |
| 2.71e7 | 2.47e7 | – | 1.26e7 | 1.18e7 | inactive | Gr77a (GeneID 117476) | 1 |
| 4.80e7 | 4.49e7 | – | 2.12e7 | 2.25e7 | inactive | CG15107 (GeneID 59128) | 1 |
| 3.75e7 | 3.43e7 | – | 2.01e7 | 1.65e7 | inactive | CG3036 (GeneID 33695) | 1 |
| 3.52e7 | – | – | 1.63e7 | – | inactive | CG3036 (GeneID 33695) | 2 |
| 3.17e7 | 3.51e7 | – | 4.04e7 | 1.51e7 | inactive | CG4362 (GeneID 42410) | 1 |
| 3.66e7 | 4.10e7 | – | 1.82e7 | 1.81e7 | inactive | Pink1 (GeneID 31607) | 1 |
| 2.98e7 | 3.89e7 | – | 1.48e7 | 1.70e7 | inactive | Klp10A (GeneID 32049) | 1 |
| 3.41e7 | 5.27e7 | – | 1.59e7 | 2.14e7 | inactive | Sema1a (GeneID 34192) | 1 |
| 1.88e7 | 2.15e7 | – | 9.59e6 | 1.01e7 | inactive | CG7720 (GeneID 42257) | 1 |
| 4.43e7 | 2.93e7 | – | 2.51e7 | 1.51e7 | inactive | CG7720 (GeneID 42257) | 2 |
| 1.17e7 | 1.12e7 | – | 7.84e6 | 8.15e6 | inactive | RpL7 (GeneID 34352) | 1 |
| 4.69e7 | 5.08e7 | – | 2.37e7 | 2.17e7 | inactive | CG31676 (GeneID 35351) | 1 |
| 3.76e7 | 3.95e7 | – | 1.82e7 | 1.94e7 | inactive | IntS8 (GeneID 36886) | 1 |
| 4.35e7 | – | – | 2.04e7 | – | inactive | Hsp60B (GeneID 48572) | 1 |
| 2.38e7 | 3.06e7 | – | 1.22e7 | 1.41e7 | inactive | CG3823 (GeneID 31573) | 1 |
| 5.04e7 | 5.36e7 | – | 2.21e7 | 2.66e7 | inactive | CR32733 + CG32797 | 1 |
| 2.85e7 | 2.30e7 | – | 1.34e7 | 9.90e6 | inactive | CG5555 (GeneID 42302) | 1 |
| 3.96e7 | 3.58e7 | – | 1.67e7 | 1.43e7 | inactive | Or85e (GeneID 41018) | 1 |
| 2.88e7 | 4.21e7 | – | 1.50e7 | 2.01e7 | inactive | CG15333 (GeneID 31720) | 1 |
| 2.57e7 | 4.00e7 | – | 1.32e7 | 1.88e7 | inactive | CG15333 (GeneID 31720) | 2 |
| 1.03e7 | 1.37e7 | – | 8.12e6 | 9.35e6 | inactive | eEF2 (GeneID 35422) | 1 |
| 4.38e7 | 2.94e7 | – | 2.83e7 | 1.30e7 | inactive | CG33490 (GeneID 2768970) | 1 |
| 4.62e7 | 6.25e7 | 2 | 2.27e7 | 2.50e7 | inactive | CG4025 (GeneID 31177) | 1 |
| 2.71e7 | 2.44e7 | – | 1.35e7 | 1.21e7 | inactive | CG31198 (GeneID 318622) | 1 |
| 4.28e7 | – | – | 2.08e7 | – | inactive | Rsph4a (GeneID 37831) | 1 |
| 4.62e7 | 4.44e7 | – | 2.31e7 | 1.97e7 | inactive | lncRNA:CR32368 (GeneID 317997) | 1 |
| 2.39e7 | – | – | 1.27e7 | – | inactive | Tim10 + CG42497 | 1 |
| 5.31e7 | 7.96e7 | – | 2.32e7 | 2.93e7 | inactive | CG15147 (GeneID 35069) | 1 |
| 5.02e7 | 3.07e7 | – | 2.04e7 | 1.49e7 | inactive | CG15147 (GeneID 35069) | 2 |
| 3.17e7 | 3.06e7 | – | 1.48e7 | 1.43e7 | inactive | HDAC11 (GeneID 326120) | 1 |
| 3.95e7 | 5.48e7 | – | 1.89e7 | 2.21e7 | inactive | CG34433 (GeneID 5740702) | 1 |
| 3.17e7 | 4.35e7 | – | 5.11e7 | 1.84e7 | inactive | Rim (GeneID 42150) | 1 |
| 2.30e7 | 2.65e7 | – | 3.74e7 | 1.42e7 | inactive | Rim (GeneID 42150) | 2 |
| 3.84e7 | 3.14e7 | – | 1.77e7 | 1.45e7 | inactive | Rim (GeneID 42150) | 3 |
| 3.15e7 | 3.05e7 | – | 3.61e7 | 1.33e7 | inactive | Rim (GeneID 42150) | 4 |
| 2.30e7 | 2.68e7 | – | 1.23e7 | 1.18e7 | inactive | Rim (GeneID 42150) | 5 |
| 3.32e7 | 3.67e7 | – | 1.56e7 | 1.67e7 | inactive | kar (GeneID 45883) | 1 |
| 3.58e7 | 3.59e7 | – | 1.74e7 | 1.88e7 | inactive | pigs (GeneID 31596) | 1 |
| 2.83e7 | 4.33e7 | – | 1.28e7 | 1.83e7 | inactive | pigs (GeneID 31596) | 2 |
| 2.45e7 | 3.52e7 | – | 1.16e7 | 1.61e7 | inactive | pigs (GeneID 31596) | 3 |
| 2.45e7 | 3.25e7 | – | 1.19e7 | 1.45e7 | inactive | CG13239 (GeneID 40503) | 1 |
| 2.66e7 | 3.16e7 | – | 1.15e7 | 1.49e7 | inactive | CG31388 (GeneID 41355) | 1 |
| 3.55e7 | 3.76e7 | – | 1.86e7 | 1.79e7 | inactive | Or59b (GeneID 37715) | 1 |
| 2.70e7 | 4.59e7 | – | 1.38e7 | 1.94e7 | inactive | CG12860 (GeneID 36629) | 1 |
| 3.91e7 | 5.18e7 | – | 1.85e7 | 2.12e7 | inactive | MESK2 (GeneID 37451) | 1 |
| 4.54e7 | 4.96e7 | – | 1.75e7 | 1.96e7 | inactive | CG8773 (GeneID 41634) | 1 |
| 2.37e7 | 3.36e7 | – | 1.25e7 | 1.41e7 | inactive | Cpr47Ea (GeneID 36188) | 1 |
| 2.88e7 | 3.85e7 | – | 1.58e7 | 1.80e7 | inactive | prc (GeneID 43930) | 1 |
| 4.76e7 | 5.03e7 | – | 2.23e7 | 2.12e7 | inactive | mRpL17 (GeneID 38046) | 1 |
| 4.00e7 | 3.54e7 | – | 2.15e7 | 1.71e7 | inactive | CG30039 (GeneID 246411) | 1 |
| 3.81e7 | 7.64e7 | – | 2.00e7 | 3.40e7 | inactive | Vta1 (GeneID 38204) | 1 |
| 2.57e7 | 3.14e7 | – | 1.24e7 | 1.45e7 | inactive | Vta1 (GeneID 38204) | 2 |
| 2.75e7 | 3.15e7 | – | 1.48e7 | 1.45e7 | inactive | CG3246 (GeneID 33564) | 1 |
| 4.54e7 | 3.65e7 | – | 2.45e7 | 1.62e7 | inactive | ppk8 (GeneID 318213) | 1 |
| 2.77e7 | 3.23e7 | – | 1.57e7 | 1.51e7 | inactive | ppk29 (GeneID 37844) | 1 |
| 3.94e7 | 3.50e7 | – | 1.94e7 | 1.69e7 | inactive | CR31292 (GeneID 10178952) | 1 |
| 3.49e7 | – | – | 1.99e7 | – | inactive | HemK2 + Snapin | 1 |
| 3.75e7 | 4.82e7 | – | 1.78e7 | 1.89e7 | inactive | HemK2 + Snapin | 2 |
| 3.26e7 | 3.46e7 | – | 5.87e7 | 1.60e7 | inactive | CG7714 (GeneID 42250) | 1 |
| 2.06e7 | 2.33e7 | – | 1.30e7 | 1.48e7 | inactive | Tango4 (GeneID 32168) | 1 |
| 2.09e7 | 3.32e7 | – | 9.79e6 | 1.45e7 | inactive | Gr10a (GeneID 117501) | 1 |
| 3.55e7 | 3.32e7 | – | 1.71e7 | 1.68e7 | inactive | Gr10a (GeneID 117501) | 2 |
| 3.86e7 | 3.22e7 | – | 1.64e7 | 1.68e7 | inactive | Ote (GeneID 37090) | 1 |
| 3.03e7 | 4.01e7 | – | 1.40e7 | 2.79e7 | inactive | CG5114 (GeneID 39624) | 1 |
| 9.91e6 | 1.27e7 | – | 7.58e6 | 8.17e6 | inactive | RpS6 (GeneID 31700) | 1 |

Targets listed so far whose target name starts with T or t (2):
| calcium entry signal, replicate 1 (fluorescence units) | calcium entry signal, replicate 2 (fluorescence units) | entry to resting ratio | resting calcium signal, replicate 1 (fluorescence units) | resting calcium signal, replicate 2 (fluorescence units) | outcome | gene | reagent |
| --- | --- | --- | --- | --- | --- | --- | --- |
| 2.39e7 | – | – | 1.27e7 | – | inactive | Tim10 + CG42497 | 1 |
| 2.06e7 | 2.33e7 | – | 1.30e7 | 1.48e7 | inactive | Tango4 (GeneID 32168) | 1 |
